These are yes or no findings as the source states them, for the method shown. In cells and extracts the contact can be indirect. Some binding calls cover weakened binding; strength is not graded here.
Biological target: T1, RNA binding protein motif 3 (RBM3) (rat (endogenous in PC12)) (UniProt Q925G0)
T1 sequence: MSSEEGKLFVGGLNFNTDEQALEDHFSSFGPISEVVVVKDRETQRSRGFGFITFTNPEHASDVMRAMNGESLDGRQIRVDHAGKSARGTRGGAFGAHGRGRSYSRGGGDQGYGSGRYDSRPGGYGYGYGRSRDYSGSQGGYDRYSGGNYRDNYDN
Test: co-IP; anti-RBM3 rabbit polyclonal antibody (10 ug) cross-linked with DSS to magnetic beads, incubated with 500 ug total protein from PC12 cells (control or 6 h of OGD stimulation); low-pH elution, SDS-PAGE

The chains behind the UniProt entries cited, without tags or fusion partners.
UniProt D3ZYS7: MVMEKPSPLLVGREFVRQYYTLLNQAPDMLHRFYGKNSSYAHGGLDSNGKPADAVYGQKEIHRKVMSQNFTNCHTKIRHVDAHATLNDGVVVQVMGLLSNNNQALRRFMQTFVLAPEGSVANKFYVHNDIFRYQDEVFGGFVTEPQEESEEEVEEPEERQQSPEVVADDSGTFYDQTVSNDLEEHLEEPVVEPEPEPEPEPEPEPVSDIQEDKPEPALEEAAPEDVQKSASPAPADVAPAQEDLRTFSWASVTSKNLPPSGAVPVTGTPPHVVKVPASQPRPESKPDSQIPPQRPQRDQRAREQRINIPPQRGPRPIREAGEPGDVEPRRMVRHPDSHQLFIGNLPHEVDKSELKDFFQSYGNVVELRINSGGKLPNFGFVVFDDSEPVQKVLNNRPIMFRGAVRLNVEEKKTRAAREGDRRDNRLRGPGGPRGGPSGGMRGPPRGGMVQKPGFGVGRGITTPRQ

With “GTPase-activating protein-binding protein 1 (G3BP1) (from UniProt D3ZYS7 1-465)” the binding was “binds”.
